Measurements reported in PubChem BioAssay AID1159584 (Peter MacCallum Cancer Centre, 2016).
This is a random part of about 18,000 reagents tested. Not all columns of the deposit are shown. Not stated in the record: the amount of reagent, the time to read-out.

Screen: 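Knock-downs that harm CDH1-null cells more than parental MCF10A cells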 (primary screen)
Cells: human MCF10A breast epithelial cells, parental and CDH1-null
Reagents: siRNA against human genes
Measurement: 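Cell viability by CellTiter-Glo ATP luminescence, each line scaled to the mean of mock wells across plates, then CDH1-null over parental ratio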
Scale: CDH1-null / parental viability ratio: higher = CDH1-null cells survive relatively better than parental

Silencing of TRPV5 [SID152149734] gave: CDH1-null / parental viability ratio 1.22. Against APLP1 (amyloid beta precursor like protein 1) [SID152151628], the values are CDH1-null / parental viability ratio 0.96. With knock-down of CELF1 (CUGBP Elav-like family member 1) [SID134323900] the results were CDH1-null / parental viability ratio 1.23. ZFAND4 (zinc finger AN1-type containing 4) [SID134321671] gave CDH1-null / parental viability ratio 1.47. Knock-down of IRX1 (iroquois homeobox 1) [SID152155278] came out at: CDH1-null / parental viability ratio 0.97. Silencing of METAP1 (methionyl aminopeptidase 1) [SID152156515] gave: CDH1-null / parental viability ratio 1.1.

After knock-down of CD33 (CD33 molecule) [SID135623758] the results were CDH1-null / parental viability ratio 1.43. After knock-down of ARFGAP1 (ARF GTPase activating protein 1) [SID134317550] the results were CDH1-null / parental viability ratio 1.11. After knock-down of SLC30A10 [SID135621350] the results were CDH1-null / parental viability ratio 1.09. Depletion of PTGER4 (prostaglandin E receptor 4) [SID134311145] resulted in: CDH1-null / parental viability ratio 0.91. ZSWIM9 (zinc finger SWIM-type containing 9) [SID152155838] showed CDH1-null / parental viability ratio 1.12. Knock-down of CEP112 (centrosomal protein 112) [SID135623153] resulted in: CDH1-null / parental viability ratio 1.13.

Knock-down of NUS1 (NUS1 dehydrodolichyl diphosphate synthase subunit) [SID135622977] resulted in: CDH1-null / parental viability ratio 1.02. Against KCTD12 (potassium channel tetramerization domain containing 12) [SID152152411], the entry reads CDH1-null / parental viability ratio 1.71. DCC (DCC netrin 1 receptor) [SID152156351] gave CDH1-null / parental viability ratio 1.02. After knock-down of KPNB1 (karyopherin subunit beta 1) [SID134321456], the screen gave CDH1-null / parental viability ratio 0.7. Depletion of IFNK (interferon kappa) [SID152151562] came out at: CDH1-null / parental viability ratio 1.26. For LMBR1 (limb development membrane protein 1) [SID152149374], the values are CDH1-null / parental viability ratio 1.

For ANKRD39 (ankyrin repeat domain 39) [SID152149486], the values are CDH1-null / parental viability ratio 0.98. With knock-down of H2BC13 (H2B clustered histone 13) [SID134315776] the results were CDH1-null / parental viability ratio 1.18. Silencing of RPL36AL (ribosomal protein L36a like) [SID134317744] came out at: CDH1-null / parental viability ratio 1.02. Against NFIA (nuclear factor I A) [SID134313520], the entry reads CDH1-null / parental viability ratio 0.99. With knock-down of NFKBIL1 (NFKB inhibitor like 1) [SID134316306] the results were CDH1-null / parental viability ratio 0.95. Knock-down of CREBBP (CREB binding lysine acetyltransferase) [SID152156768] came out at: CDH1-null / parental viability ratio 1.08.

Depletion of DNTTIP1 (deoxynucleotidyltransferase terminal interacting protein 1) [SID134319222] came out at: CDH1-null / parental viability ratio 1.02. Silencing of RDX (radixin) [SID152151927] resulted in: CDH1-null / parental viability ratio 1.49. Knock-down of ATP6V0A2 (ATPase H+ transporting V0 subunit a2) [SID134323705] resulted in: CDH1-null / parental viability ratio 1.21. CST4 (cystatin S) [SID134315959] scored CDH1-null / parental viability ratio 0.95. NEK8 (NIMA related kinase 8) [SID56478901] showed CDH1-null / parental viability ratio 1. Against ANKIB1 (ankyrin repeat and IBR domain containing 1) [SID152152950], the entry reads CDH1-null / parental viability ratio 0.92.

BGLAP (bone gamma-carboxyglutamate protein) [SID152147148] showed CDH1-null / parental viability ratio 1.09. With knock-down of FAM133A (family with sequence similarity 133 member A) [SID134321921], the screen gave CDH1-null / parental viability ratio 0.92. Silencing of WFDC5 (WAP four-disulfide core domain 5) [SID134321345] came out at: CDH1-null / parental viability ratio 1.16. Depletion of EDRF1 (erythroid differentiation regulatory factor 1) [SID135622440] resulted in: CDH1-null / parental viability ratio 1.13. EPHA5 (EPH receptor A5) [SID152153658] gave CDH1-null / parental viability ratio 0.92. After knock-down of KRT20 (keratin 20) [SID134317617], the screen gave CDH1-null / parental viability ratio 1.13.

Silencing of DNAJC14 (DnaJ heat shock protein family (Hsp40) member C14) [SID152153877] gave: CDH1-null / parental viability ratio 1.07. SOSTDC1 (sclerostin domain containing 1) [SID135622645] showed CDH1-null / parental viability ratio 1.2. For PTCRA (pre T cell antigen receptor alpha) [SID152148956] the deposit lists CDH1-null / parental viability ratio 1.35. SPRR1B (small proline rich protein 1B) [SID135623819] scored CDH1-null / parental viability ratio 0.94. DNAJB7 (DnaJ heat shock protein family (Hsp40) member B7) [SID134313763] gave CDH1-null / parental viability ratio 0.78. After knock-down of C21orf91 (chromosome 21 open reading frame 91) [SID152149339], the screen gave CDH1-null / parental viability ratio 0.84.

TDRD1 (tudor domain containing 1) [SID135622544] showed CDH1-null / parental viability ratio 1.31. For OR6C1 (olfactory receptor family 6 subfamily C member 1) [SID152146863], the entry reads CDH1-null / parental viability ratio 1. For OR52A1 (olfactory receptor family 52 subfamily A member 1) [SID152149710], the entry reads CDH1-null / parental viability ratio 1.19.

Copied from the list.
Under “CDH1-null / parental viability ratio”, BGLAP (bone gamma-carboxyglutamate protein) [SID152147148] reads 1.09
TRPV5 [SID152149734], CDH1-null / parental viability ratio = 1.22
IRX1 (iroquois homeobox 1) [SID152155278], CDH1-null / parental viability ratio = 0.97
Result for SPRR1B (small proline rich protein 1B) [SID135623819] in “CDH1-null / parental viability ratio”: 0.94
For “CDH1-null / parental viability ratio”, C21orf91 (chromosome 21 open reading frame 91) [SID152149339] reads 0.84
Entry for DCC (DCC netrin 1 receptor) [SID152156351] under “CDH1-null / parental viability ratio”: 1.02
